Assay results from paper PMC6581955, “Rosmarinic acid suppresses Alzheimer’s disease development by reducing amyloid β aggregation by increasing monoamine secretion” (Scientific Reports, 2019).

System: brain gene expression (DEGs)
Assay: DNA microarray analysis in the brain of Tg2576 mice fed RA
Format: in vivo
Details: 0.5% RA diet for 10 months; FDR <0.05

With O=C(/C=C/c1ccc(O)c(O)c1)O[C@H](Cc1ccc(O)c(O)c1)C(=O)O [RA, rosmarinic acid] the “downregulated probe sets (DEGs) vs control group” value was 636 and the “upregulated probe sets (DEGs) vs control group” value was 367.
